From PubChem BioAssay AID2685 (National Center for Advancing Translational Sciences (NCATS), 2010)
The other results are listed elsewhere or left out. The main result of the screen is listed elsewhere. These columns were measured beside it and carry no call. The list favours compounds with an active or inconclusive main result. Potencies come from curve fits of mixed quality, noted in brackets.

Test: qHTS Assay for Lipid Storage Modulators in Drosophila S3 Cells;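 on cell number change: cells counted by Cell Tracker Red CMTPX staining in the red channel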
Settings: BODIPY lipid droplet fluorescence, 18-24 h; for cell number change: measured here: cell count max response, cells fed with added oleic acid
Method in brief: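 Laser-scanning cytometry quantifies lipid droplet accumulation (500–530 nm total intensity; droplet/cell object ratio) in oleic acid-fed (400 uM added) Drosophila S3 cells treated with a concentration series. 20 uM Triacsin C defined 100% inhibition.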

[1] = measured here: lipid fluorescence (Fed channel) AC50, cells fed with added oleic acid
[2] = measured here: cell number channel AC50, cells fed with added oleic acid

| SMILES | cell number change | AC50 [1] | AC50 [2] |
| --- | --- | --- | --- |
| CCCCn1c(N)c(N(CCOC)C(=O)c2ccc(OCc3c(C)noc3C)cc2)c(=O)[nH]c1=O | -17.1% | 32.6 µM [falling, single point] | – |
| O=C(CCCCCN1C(=O)CCC1=O)Nc1ccc(Cl)c(C(F)(F)F)c1 | 11.5% | – | 0.92 µM [rising, full curve, poor fit] |
| Cn1nnc(NC(=S)NC(=O)c2cccs2)n1 | -12.2% | 6.51 µM [falling, single point] | – |
| COc1cc(/C=N/N2C(=O)c3ccccc3C2=O)ccc1O | -19.6% | – | 1.46 µM [falling, full curve, poor fit] |
| COc1ccc(Cl)cc1S(=O)(=O)NCc1nc2nc(C)cc(C)n2n1 | 9.51% | 10.3 µM [falling, single point] | – |
| Cc1cc(NC(=O)C2CCCCC2C(=O)O)ccc1NC(=O)c1ccccc1 (centres undefined) | 24.9% | 29.1 µM [rising, single point] | – |
| CCN=C1S/C(=C\c2ccc(OCC)c(OC)c2)C(=O)N1CC | -22.2% | 16.4 µM [falling, single point] | – |
| O=C(NCc1n[nH]c(=S)n1Cc1ccccc1)c1ccc(Cl)cc1Cl | -10.7% | – | – |
| COc1cc(/C=N/Nc2ccccc2[N+](=O)[O-])cc(OC)c1O | -7.88% | 6.51 µM [falling, single point] | – |
| O=C(CNC(=O)N1CC(=O)Nc2ccccc21)NCc1ccccc1 | -1.7% | 29.1 µM [rising, single point] | – |
| COc1ccc(N2CCN(c3cc(C)nc4ccc(OC)cc34)CC2)cc1 | 13.5% | 6.51 µM [rising, single point] | – |
| COc1ccccc1NC(=O)c1ccc(C(=O)Nc2ccccc2OC)nc1 | -8.81% | – | – |
| Cc1ccc(NC(=O)CC(O)(C(F)(F)F)C(F)(F)F)cc1 | -56.6% | 1.46 µM [falling, partial curve] | 25.9 µM [falling, single point] |
| COC(=O)Cc1c(C)nc2nc(NCc3c(F)cccc3Cl)[nH]n2c1=O | -2.74% | 29.1 µM [rising, single point] | – |
| CSc1cccc(NC(=O)C(C)Sc2ccc(C)cc2)c1 (centres undefined) | 6.96% | 16.4 µM [falling, partial curve] | – |
| CCCCNC(=S)N/N=C/c1ccc(C)s1 | -45.6% | 0.146 µM [falling, full curve, poor fit] | 18.4 µM [falling, single point] |
| Cc1cccc(C(=O)NCC(=O)Nc2ccc(S(=O)(=O)Nc3nc(C)cc(C)n3)cc2)c1 | -13.3% | – | – |
| CC(=O)N1CCN2C(=O)C1CCCC(=O)c1cc(C(C)C)ccc12 (centres undefined) | 52.6% | 23.1 µM [rising, partial curve] | 14.6 µM [rising, partial curve] |
| Cc1ccc(C(NC(=O)N2CCCCC2)=C(Cl)Cl)cc1F | -30.1% | 0.00517 µM [falling, full curve, poor fit] | 4.11 µM [falling, partial curve] |
| Cc1cccc(OCC(=O)N(C)CC(=O)Nc2cccc(F)c2)c1C | 1.83% | 0.13 µM [rising, full curve, poor fit] | – |

Record cards (already shown).
Cn1nnc(NC(=S)NC(=O)c2cccs2)n1 in the list: cell number change: -12.2%; AC50 [1]: 6.51 µM [falling, single point]
COc1cc(/C=N/Nc2ccccc2[N+](=O)[O-])cc(OC)c1O in the list: cell number change: -7.88%; AC50 [1]: 6.51 µM [falling, single point]
COc1ccccc1NC(=O)c1ccc(C(=O)Nc2ccccc2OC)nc1 in the list: cell number change: -8.81%

More structures follow.

| SMILES | cell number change | AC50 [1] | AC50 [2] |
| --- | --- | --- | --- |
| CC(=O)Oc1ccccc1C(=O)NC(C)CCc1ccccc1 (centres undefined) | 1.57% | 3.66 µM [falling, full curve, poor fit] | – |
| COc1ccccc1N(CC(=O)N(CC(C)C)CC(C)C)S(=O)(=O)c1cccs1 | -22.2% | – | – |
| COc1cc(-c2noc(C)c2-c2ccc(N(C)C)nc2)cc(OC)c1OC | 7.12% | – | – |
| CCOC(=O)c1cnc(SC)nc1N | 5.18% | 20.6 µM [falling, partial curve] | – |
| NC(=O)C1CCN(c2cc(Cl)ccc2[N+](=O)[O-])CC1 | 6.83% | – | – |
| Cc1ccsc1C(=O)OCC(=O)NCc1ccc2c(c1)OCO2 | – | 0.58 µM [rising, single point] | 0.58 µM [rising, single point] |
| COc1cc(C)c(CN2CCC(Oc3ccc(C(=O)N4CCCC4)cc3)CC2)cc1C | -25.7% | – | 0.103 µM [rising, full curve, poor fit] |
| Cc1nc(SCC(=O)N2CCN(c3ccccc3)CC2)c2oc3ccccc3c2n1 | 32.9% | 0.651 µM [rising, full curve] | 0.231 µM [rising, full curve, poor fit] |
| O=C(O)/C=C/c1cccc(NS(=O)(=O)c2ccccc2)c1 | 4.21% | 0.58 µM [falling, single point] | 1.64 µM [falling, partial curve] |
| O=C(Nc1ccc(N2CCOCC2)cc1)c1ccc(Cl)c(S(=O)(=O)N2CCCC2)c1 | -34.4% | 6.51 µM [falling, single point] | 20.6 µM [falling, partial curve] |
| CCCc1c(C)nc(N2CCN(c3ccc(F)cc3)CC2)[nH]c1=O | 17.9% | – | – |
| Cc1cc(C)cc(-n2ccnc2SCC(=O)c2c(N)n(C3CC3)c(=O)[nH]c2=O)c1 | -30.3% | 25.9 µM [falling, partial curve, poor fit] | 29.1 µM [falling, single point] |
| CCSc1nnc(NC(=O)c2ccc(C)cc2)s1 | 41.3% | 1.46 µM [falling, full curve] | 29.1 µM [rising, single point] |
| CCOc1ccc(N2C(=O)CC(NCCc3ccncc3)C2=O)cc1 (centres undefined) | -3.96% | 11.6 µM [falling, single point] | – |
| O=C(NC(=S)Nc1ccccc1Cl)c1ccco1 | -5.46% | – | – |
| O=C(COc1ccc(Cl)cc1)Nc1ccc2[nH]ncc2c1 | 18.9% | – | – |
| CN(C(=S)NCCN1CCOCC1)C(c1ccccc1)c1ccccc1 | 3.28% | – | – |
| O=c1[nH]c(-c2ccccn2)nc(C(F)(F)F)c1Br | -21.8% | 0.82 µM [falling, full curve] | – |
| O=C1Nc2c(ccc(Cl)c2Cl)C(=O)C1(F)c1ccccc1 (centres undefined) | -30.6% | – | 20.6 µM [falling, partial curve] |
| Cc1c(C(=O)N/N=C/c2cccc(O)c2)nnn1-c1nonc1N | -18.5% | 2.31 µM [falling, partial curve] | – |
